Test results reported in PubChem BioAssay AID588497 (NMMLSC, 2011).
Several values for one entry are separate records, joined by “and”; a condition that tells them apart may be missing. Identical values can stand only once. The whole screen tested about 360,000 compounds, of which about 780 (0.22%) were called active. The shares of active, inactive and inconclusive entries below differ from those in the screen. No stated cut-off is given here; in the data, active means inhibition above about 35% (passing the limit was not always enough); inconclusive means no clear call, values can overlap the other calls.

tested on: Botulinum neurotoxin type F light chain protease (Clostridium botulinum); assay: BoNT/F light chain protease inhibitors, primary screen, biochemical, flow cytometry, MLPCN library (AID 588497); conditions: Multiplex microsphere protease cleavage assay, at 10 µM, active compounds read high; further: plate controls were buffer without enzyme for full effect and enzyme alone for no effect

| Structure (SMILES) | inhibition |
| --- | --- |
| CCC(C)(C)NC(=O)CSc1nc(Cc2ccccc2)nc2ccccc12 | inconclusive: 2.6% |
| Cc1cc(=O)oc2c(CN3CCCCC3)c(O)c(Cl)cc12 | inactive: -2.6% |
| COc1ccc(NS(=O)(=O)c2cccc(C(=O)N3CCC3)c2)cc1 | inconclusive: -10.2% |
| O=C(O)C(O)(c1ccccc1)C(O)c1ccccc1 (stereo unspecified) | inconclusive: 11.3% |
| COc1ccc2c(c1)nc(CN1CCN(CCO)CC1)n2C | inconclusive: -16.3% |
| Cn1c(CNC(=O)OC(C)(C)C)nnc1SCc1c(Cl)cccc1Cl | inconclusive: 26% |
| CN1C(=O)C(CC(=O)Nc2ccc(F)cc2)N(Cc2cccs2)C1=S (stereo unspecified) | inconclusive: -45.4% |
| CCC(C)Sc1cc(-c2nc3ccccn3c2NC2CCCCC2)ccc1OC (stereo unspecified) | inactive: 1.1% and inactive: -9.3% |
| CCOc1ccc(S(=O)(=O)NCCC(=O)NCC(c2ccc(OC)cc2)N2CCCCC2)cc1 (stereo unspecified) | inconclusive: 4.6% |
| COc1ccc(CC(=O)OCC(=O)Nc2cc(Cl)ccc2C)cc1 | inactive: -17% |
| CC(C)(C)OC(=O)N1CCC[C@H]1c1nnc(SCC(=O)Nc2cccc(Cl)c2)o1 | inconclusive: 130% |
| CCOc1c2ccccc2nn1CCO | inactive: -7.5% |
| Cc1nc2nc(CCc3ccccc3)nn2c(C)c1Cl | inactive: 15.1% |
| Cc1ccc(NCc2nc3ccccc3n2C)c(C)c1 | inconclusive: -4% |
| CN(C)CCSc1nc(O)c(-c2ccccc2)c(=O)n1-c1ccccc1 | inconclusive: 148% |
| S=C1Cc2ccccc2N1 | inactive: -3.9% |
| O=C(COC(=O)Cc1c(F)cccc1Cl)NC1CCS(=O)(=O)C1 (stereo unspecified) | inconclusive: 13.4% |
| COc1ccc(CCCC(=O)Nc2cc(C)ccc2OC)cc1 | inconclusive: 11.6% |
| Cc1ccc(-c2cc(N)n(-c3ccc(C)cc3)n2)cc1 | inconclusive: 3% |
| Nc1ccc(O)c(-c2nc3ccccc3s2)c1 | inconclusive: -31.4% |
| CCOc1ccccc1C(=O)NCC(=O)NNC(=O)c1cccc(S(=O)(=O)Nc2ccc(OC)cc2)c1 | inactive: -8.8% |

| Structure (SMILES) | inhibition |
| --- | --- |
| CCCCC(=O)Nc1cc(OC)c(NC(=S)Nc2ccc(OC)cc2)cc1OC | inconclusive: 12.2% |
| COCCNC(=O)Cn1nc(-c2ccccc2OC)ccc1=O | inactive: -0.2% |
| Cc1ccc(C(=O)NCC(=O)Nc2ccc3c(c2)CCC3)cc1C | inconclusive: 13.4% |
| COc1ccccc1OCCCOc1ccc(/C=C2\SC(=O)NC2=O)cc1OC | inconclusive: 34.8% |
| COCCCNC(=S)N/N=C/c1ccc(O)cc1 | inconclusive: 2.5% |
| Cn1cccc1CNCC(O)c1ccccc1 (stereo unspecified) | inconclusive: -83.8% |
| Cc1noc(C)c1S(=O)(=O)Nc1ccccc1OC(F)(F)F | inconclusive: 19.6% |
| O=C(CSc1nnc(Cn2c(=O)sc3ccccc32)n1-c1ccccc1)N1CCOCC1 | inactive: -1.3% |
| COc1ccc(-c2oc(=O)n(C)c2-c2ccc(OC)cc2)cc1 | active: 90.4% |
| O=C(CSc1nc(-c2ccccc2)c(-c2ccccc2)[nH]1)N1CCN(S(=O)(=O)c2ccccc2)CC1 | inactive: -8% |
| CCOc1ccc(CN2CCN(CC3CC3)CC2CCO)cc1 (stereo unspecified) | inconclusive: -9.4% |
| O=C([O-])c1cc(-c2ccccc2)cc(-c2ccccc2)[n+]1CCc1ccc(Cl)cc1 | inactive: -12.3% |
| Nc1ncnc2c1ncn2[C@@H]1O[C@H](CNCc2ccc(OCC(=O)Nc3nccs3)cc2)[C@@H](O)[C@H]1O | inactive: -5.3% |
| Cc1cccc2c1NC(=O)C2(O)N1CCCC(C)C1 (stereo unspecified) | inconclusive: -2.7% |
| CCOc1ccc(Nc2cc(Nc3ccccc3OCC)nc(C=C(C#N)C#N)n2)cc1 | inconclusive: 20.3% |
| CCOc1ccccc1NC(=O)C1CCCN(S(C)(=O)=O)C1 (stereo unspecified) | inconclusive: -8.9% |
| COc1ccc(S(=O)(=O)N2CCN(Cc3cccc(OC)c3OC)CC2)cc1 | inconclusive: -51.5% |
| CCOc1ccccc1N1CCN(C(=O)c2ccc3nc(N)sc3c2)CC1 | inconclusive: 1.8% |
| COc1ccc(-c2ocnc2C(=O)N2CCN(Cc3cccnc3)CC2)cc1 | inconclusive: 17.1% |
| COc1cccc(CN(C)CCCn2cnc3c(SC)ncnc32)c1 | inactive: 7.5% |
| CC(/C=C/c1ccccc1)=N\NC(=O)c1cc(C)nc2ccccc12 | inconclusive: -9.9% |

| Structure (SMILES) | inhibition |
| --- | --- |
| CCCCC(=O)Nc1ccccc1C(=O)N1CCOCC1 | inconclusive: 5.6% |
| Nc1ccc(-c2cn3cccnc3n2)cc1 | inactive: -1.8% |
| CCOc1cc(/C=C2/C(=O)NN(c3cccc(Cl)c3)C2=O)ccc1O | inconclusive: 25.4% |
| Cc1cc(OCC(=O)OCC(=O)NCc2cccs2)ccc1Cl | inactive: -4% |
| CC(NC(=O)c1ccncc1)c1ccc(Br)cc1 (stereo unspecified) | inconclusive: 9.3% |
| COc1ccc(/C=N/Nc2cc(N3CCOCC3)nc(C)n2)c(OC)c1 | inconclusive: 7% |
| O=C(c1ccc(F)cc1)N1CCC2(CC1)OCCO2 | inconclusive: -30.9% |
| CC(C)(CO)NCc1c(OCc2ccc(Cl)cc2)ccc2ccccc12 | inconclusive: -4.6% |
| CCCCc1cc2c(cc1NC(=O)CN1CCCCC1)OCCO2 | inactive: -7.7% |
| Cc1ccc2cc(C3C(C#N)=C(N)Oc4c3ccc3cccnc43)c(=O)[nH]c2c1 (stereo unspecified) | inactive: -13.2% |
| O=c1ccnc(Sc2ncccc2[N+](=O)[O-])[nH]1 | inconclusive: -14% |
| COC(=O)Cn1c(N2CCCC2)nc2c1c(=O)n(C)c(=O)n2C | inconclusive: -7.1% |
| Cn1c(Cn2c3ccccc3c3ccccc32)n[nH]c1=S | inconclusive: 92.1% |
| CC(C)Oc1ncnc2c1[nH]c1ccccc12 | inconclusive: 1.8% |
| CC(C)Cc1ccc(C(C)C(=N)N)cc1 (stereo unspecified) | inconclusive: -34.4% |
| Nn1c(SCc2cccc(Br)c2)nnc1-c1ccncc1 | inconclusive: 4.7% |
| c1ccc2c(c1)ccc1nnnn12 | inconclusive: 56.6% |
| COc1ccc(O)c(CN2CCCC(N3CCN(c4ccccc4OC)CC3)C2)c1 (stereo unspecified) | inconclusive: -2.3% |
| Cc1c(C=N)c(O)n(C)c(=O)c1C#N | inconclusive: 25% |
